The list shows a part of the results.
Tests used:
Experiment in all cases: log2 fold change, soluble protein after heating vs DMSO (PISA); higher = thermal stabilisation; K562 lysate, 10 uM; active = over 0.2 and 3.5 SD of the protein, either way, in both replicates (recomputed)
[1] = compound: C1=CC=C(C=C1)[C@H](COC2=CC3=C(C=C2)NC(=O)N3)NC(=O)C4=CC=CN(C4=O)CC5=CC(=C(C=C5)F)F
How it was run: (§1)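 Values give the log-two fold change in thermal stability against solvent controls, from duplicates. Crude K562 extract at 1 mg/mL protein, made by dounce homogenisation in PBS pH 7.4 with 1 mM MgCl2, was treated with 10 μM compound for 30 min. After 3 min heating across 48°C-58°C, aliquots were pooled, adjusted to 0.5% NP-40 at 4°C and centrifuged at 21,000xg for 90 min. The supernatant was measured by TMTpro 16plex LC-MS/MS with channel sums equalised.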

Sequences of proteins named here, by UniProt entry; tags and fusion partners are left off. A change or cut given only in a name is not applied to a line headed by its entry.
UniProt P23634: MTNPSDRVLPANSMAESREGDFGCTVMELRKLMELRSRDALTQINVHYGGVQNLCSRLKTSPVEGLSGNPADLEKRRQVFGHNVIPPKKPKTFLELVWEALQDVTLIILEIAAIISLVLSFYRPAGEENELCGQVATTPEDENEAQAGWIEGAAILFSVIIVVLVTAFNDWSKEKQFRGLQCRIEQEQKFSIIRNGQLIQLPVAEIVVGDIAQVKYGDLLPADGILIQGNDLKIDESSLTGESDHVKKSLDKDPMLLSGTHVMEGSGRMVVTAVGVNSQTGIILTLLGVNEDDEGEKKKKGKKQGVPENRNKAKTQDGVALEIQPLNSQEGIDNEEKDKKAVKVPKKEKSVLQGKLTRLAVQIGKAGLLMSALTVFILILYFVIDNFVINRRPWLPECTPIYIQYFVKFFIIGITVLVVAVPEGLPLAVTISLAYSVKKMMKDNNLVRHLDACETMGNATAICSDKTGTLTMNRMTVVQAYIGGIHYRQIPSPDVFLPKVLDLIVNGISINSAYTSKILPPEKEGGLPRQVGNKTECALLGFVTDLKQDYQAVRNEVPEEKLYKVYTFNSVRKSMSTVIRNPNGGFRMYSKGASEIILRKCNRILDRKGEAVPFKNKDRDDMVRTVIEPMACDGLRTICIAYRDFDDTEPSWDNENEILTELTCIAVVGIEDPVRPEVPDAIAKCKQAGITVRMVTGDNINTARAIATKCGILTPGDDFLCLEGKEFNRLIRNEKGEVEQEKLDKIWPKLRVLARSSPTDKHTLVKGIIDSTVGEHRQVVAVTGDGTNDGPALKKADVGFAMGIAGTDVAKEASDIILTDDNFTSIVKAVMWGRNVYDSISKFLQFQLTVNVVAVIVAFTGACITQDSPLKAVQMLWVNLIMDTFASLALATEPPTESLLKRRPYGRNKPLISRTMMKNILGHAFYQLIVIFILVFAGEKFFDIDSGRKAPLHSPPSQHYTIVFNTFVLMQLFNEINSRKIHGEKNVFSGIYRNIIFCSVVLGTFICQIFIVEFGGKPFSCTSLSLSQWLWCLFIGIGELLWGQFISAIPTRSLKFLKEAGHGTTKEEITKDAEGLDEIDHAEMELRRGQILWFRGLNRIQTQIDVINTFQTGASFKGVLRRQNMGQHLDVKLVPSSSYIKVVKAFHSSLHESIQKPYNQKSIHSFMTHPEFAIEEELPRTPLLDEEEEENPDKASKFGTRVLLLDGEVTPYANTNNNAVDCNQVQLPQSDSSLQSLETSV
UniProt Q9NQ11: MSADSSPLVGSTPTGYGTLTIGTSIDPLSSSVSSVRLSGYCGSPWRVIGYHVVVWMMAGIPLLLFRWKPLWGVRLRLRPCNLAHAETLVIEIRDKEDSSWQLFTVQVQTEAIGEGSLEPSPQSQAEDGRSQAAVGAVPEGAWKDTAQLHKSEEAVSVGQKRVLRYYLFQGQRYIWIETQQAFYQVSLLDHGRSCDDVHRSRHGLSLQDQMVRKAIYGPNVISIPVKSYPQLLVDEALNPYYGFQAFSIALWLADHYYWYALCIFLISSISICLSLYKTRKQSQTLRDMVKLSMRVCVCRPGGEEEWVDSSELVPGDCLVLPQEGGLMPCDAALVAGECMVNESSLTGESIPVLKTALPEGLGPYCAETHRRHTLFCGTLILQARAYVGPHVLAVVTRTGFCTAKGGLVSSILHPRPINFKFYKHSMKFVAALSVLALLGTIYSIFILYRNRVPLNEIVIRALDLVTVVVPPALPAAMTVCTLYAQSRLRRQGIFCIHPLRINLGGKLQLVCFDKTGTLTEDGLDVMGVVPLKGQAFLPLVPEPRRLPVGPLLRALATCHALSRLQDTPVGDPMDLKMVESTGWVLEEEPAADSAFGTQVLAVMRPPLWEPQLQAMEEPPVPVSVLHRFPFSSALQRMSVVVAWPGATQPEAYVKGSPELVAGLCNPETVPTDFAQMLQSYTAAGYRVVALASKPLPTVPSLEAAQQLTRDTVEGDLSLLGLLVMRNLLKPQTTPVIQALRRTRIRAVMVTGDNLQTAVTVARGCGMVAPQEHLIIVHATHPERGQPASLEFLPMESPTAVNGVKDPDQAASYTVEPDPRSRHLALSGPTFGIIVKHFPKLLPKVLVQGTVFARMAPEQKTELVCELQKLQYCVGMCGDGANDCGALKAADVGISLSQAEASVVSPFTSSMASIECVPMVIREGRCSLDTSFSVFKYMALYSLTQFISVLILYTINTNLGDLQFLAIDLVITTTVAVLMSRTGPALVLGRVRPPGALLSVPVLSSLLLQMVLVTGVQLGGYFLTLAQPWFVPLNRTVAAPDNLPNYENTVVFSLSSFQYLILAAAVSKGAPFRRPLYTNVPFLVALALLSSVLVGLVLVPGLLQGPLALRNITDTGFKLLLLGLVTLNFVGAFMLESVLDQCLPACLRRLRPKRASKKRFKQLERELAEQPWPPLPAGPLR
UniProt Q12797: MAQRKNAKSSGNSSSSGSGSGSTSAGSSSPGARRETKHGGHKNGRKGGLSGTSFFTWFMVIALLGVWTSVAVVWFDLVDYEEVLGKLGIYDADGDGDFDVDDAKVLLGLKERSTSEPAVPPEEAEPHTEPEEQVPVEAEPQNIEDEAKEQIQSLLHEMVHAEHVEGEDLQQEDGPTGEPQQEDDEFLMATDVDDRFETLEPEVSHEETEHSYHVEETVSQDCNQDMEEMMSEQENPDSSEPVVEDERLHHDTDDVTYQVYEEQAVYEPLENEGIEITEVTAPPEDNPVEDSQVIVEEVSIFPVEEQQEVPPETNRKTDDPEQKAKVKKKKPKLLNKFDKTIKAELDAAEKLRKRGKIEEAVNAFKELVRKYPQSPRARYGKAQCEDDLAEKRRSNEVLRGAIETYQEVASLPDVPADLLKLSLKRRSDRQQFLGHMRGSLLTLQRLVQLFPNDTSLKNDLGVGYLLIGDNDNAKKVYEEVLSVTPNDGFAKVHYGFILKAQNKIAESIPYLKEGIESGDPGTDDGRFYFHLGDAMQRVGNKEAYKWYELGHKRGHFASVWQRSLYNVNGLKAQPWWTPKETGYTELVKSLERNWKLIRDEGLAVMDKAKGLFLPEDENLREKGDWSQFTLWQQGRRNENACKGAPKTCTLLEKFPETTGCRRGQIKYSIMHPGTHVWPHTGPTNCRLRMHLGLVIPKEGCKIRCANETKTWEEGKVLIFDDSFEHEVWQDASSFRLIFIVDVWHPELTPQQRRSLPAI
UniProt P21283, whole entry, looked up: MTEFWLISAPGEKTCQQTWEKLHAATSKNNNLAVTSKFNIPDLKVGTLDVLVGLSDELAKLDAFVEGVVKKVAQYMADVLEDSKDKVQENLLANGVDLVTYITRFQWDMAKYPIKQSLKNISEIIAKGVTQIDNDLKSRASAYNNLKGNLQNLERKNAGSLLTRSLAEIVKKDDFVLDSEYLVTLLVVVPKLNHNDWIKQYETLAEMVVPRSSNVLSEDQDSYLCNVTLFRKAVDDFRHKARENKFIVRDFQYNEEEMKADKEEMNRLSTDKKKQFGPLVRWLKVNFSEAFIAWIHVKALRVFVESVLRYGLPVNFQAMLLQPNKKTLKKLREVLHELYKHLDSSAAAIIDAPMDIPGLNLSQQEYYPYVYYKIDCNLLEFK
UniProt Q9H1Y0: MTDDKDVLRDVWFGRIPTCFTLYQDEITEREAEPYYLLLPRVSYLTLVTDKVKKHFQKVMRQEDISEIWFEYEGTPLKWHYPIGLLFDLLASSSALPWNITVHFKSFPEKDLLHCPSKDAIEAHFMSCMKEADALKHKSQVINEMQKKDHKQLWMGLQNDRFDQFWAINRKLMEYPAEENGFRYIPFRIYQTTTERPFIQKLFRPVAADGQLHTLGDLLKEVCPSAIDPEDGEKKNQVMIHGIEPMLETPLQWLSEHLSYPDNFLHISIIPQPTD
UniProt Q9UII2: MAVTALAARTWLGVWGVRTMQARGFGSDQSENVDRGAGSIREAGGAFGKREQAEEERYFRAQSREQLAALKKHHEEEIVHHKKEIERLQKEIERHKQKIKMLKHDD
UniProt P98194: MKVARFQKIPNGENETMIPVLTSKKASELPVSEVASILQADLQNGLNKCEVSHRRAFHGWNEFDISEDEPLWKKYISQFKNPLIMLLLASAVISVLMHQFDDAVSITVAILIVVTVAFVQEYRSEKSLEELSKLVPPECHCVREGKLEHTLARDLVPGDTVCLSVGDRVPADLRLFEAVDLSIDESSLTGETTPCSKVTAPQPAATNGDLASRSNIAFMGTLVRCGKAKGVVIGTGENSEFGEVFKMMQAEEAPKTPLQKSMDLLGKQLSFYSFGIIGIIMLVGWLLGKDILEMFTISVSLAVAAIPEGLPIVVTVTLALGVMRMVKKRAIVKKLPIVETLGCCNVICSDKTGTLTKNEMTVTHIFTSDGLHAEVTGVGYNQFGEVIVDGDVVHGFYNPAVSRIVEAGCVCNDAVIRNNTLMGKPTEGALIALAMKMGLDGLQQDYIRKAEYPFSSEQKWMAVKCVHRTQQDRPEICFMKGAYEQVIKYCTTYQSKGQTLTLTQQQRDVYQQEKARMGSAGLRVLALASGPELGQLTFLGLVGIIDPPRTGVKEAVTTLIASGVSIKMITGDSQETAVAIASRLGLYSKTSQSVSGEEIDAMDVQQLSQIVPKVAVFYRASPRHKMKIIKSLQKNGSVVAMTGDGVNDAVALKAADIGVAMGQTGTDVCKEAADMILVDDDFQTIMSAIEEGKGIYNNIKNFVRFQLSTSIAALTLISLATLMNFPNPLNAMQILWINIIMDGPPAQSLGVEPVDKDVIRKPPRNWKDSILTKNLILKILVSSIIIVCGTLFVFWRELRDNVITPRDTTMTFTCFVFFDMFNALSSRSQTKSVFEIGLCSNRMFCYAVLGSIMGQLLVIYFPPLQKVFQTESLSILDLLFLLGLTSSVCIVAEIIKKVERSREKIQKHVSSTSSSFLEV
UniProt Q9UN42: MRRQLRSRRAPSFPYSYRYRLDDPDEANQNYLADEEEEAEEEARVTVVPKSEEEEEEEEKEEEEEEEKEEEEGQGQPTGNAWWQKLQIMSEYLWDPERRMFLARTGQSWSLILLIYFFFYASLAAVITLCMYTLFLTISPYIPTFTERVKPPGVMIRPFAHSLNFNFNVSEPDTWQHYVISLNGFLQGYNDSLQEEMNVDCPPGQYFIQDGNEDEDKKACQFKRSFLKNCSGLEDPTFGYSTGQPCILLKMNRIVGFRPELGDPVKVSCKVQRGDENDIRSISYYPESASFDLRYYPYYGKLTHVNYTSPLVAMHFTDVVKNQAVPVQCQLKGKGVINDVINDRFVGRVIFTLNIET
UniProt Q93050, whole entry, looked up: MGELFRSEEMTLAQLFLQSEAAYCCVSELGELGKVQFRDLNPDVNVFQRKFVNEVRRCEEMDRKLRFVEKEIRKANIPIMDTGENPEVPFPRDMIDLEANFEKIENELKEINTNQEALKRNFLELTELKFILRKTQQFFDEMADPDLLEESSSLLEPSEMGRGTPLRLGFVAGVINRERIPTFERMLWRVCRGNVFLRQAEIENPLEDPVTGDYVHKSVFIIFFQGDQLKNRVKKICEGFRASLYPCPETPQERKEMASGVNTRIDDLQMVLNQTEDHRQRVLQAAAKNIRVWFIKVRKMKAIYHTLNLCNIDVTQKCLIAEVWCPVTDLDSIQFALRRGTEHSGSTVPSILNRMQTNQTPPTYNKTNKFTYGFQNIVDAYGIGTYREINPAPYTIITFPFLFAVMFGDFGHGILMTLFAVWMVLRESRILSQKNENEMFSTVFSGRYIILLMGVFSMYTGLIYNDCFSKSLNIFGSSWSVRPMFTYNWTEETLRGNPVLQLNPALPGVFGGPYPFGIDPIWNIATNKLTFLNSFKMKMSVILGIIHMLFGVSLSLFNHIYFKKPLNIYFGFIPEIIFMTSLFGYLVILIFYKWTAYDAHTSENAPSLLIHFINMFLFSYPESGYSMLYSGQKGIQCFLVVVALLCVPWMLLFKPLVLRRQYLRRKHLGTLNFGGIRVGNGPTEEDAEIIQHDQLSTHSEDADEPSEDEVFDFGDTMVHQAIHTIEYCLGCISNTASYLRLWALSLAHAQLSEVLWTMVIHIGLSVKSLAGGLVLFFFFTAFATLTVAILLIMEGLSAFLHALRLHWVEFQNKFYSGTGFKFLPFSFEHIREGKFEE
UniProt P18847: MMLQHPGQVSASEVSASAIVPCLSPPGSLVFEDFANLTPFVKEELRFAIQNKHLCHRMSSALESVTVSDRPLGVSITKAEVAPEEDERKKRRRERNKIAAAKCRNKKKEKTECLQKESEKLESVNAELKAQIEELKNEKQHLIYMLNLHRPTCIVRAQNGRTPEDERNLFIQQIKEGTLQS
UniProt Q9Y576: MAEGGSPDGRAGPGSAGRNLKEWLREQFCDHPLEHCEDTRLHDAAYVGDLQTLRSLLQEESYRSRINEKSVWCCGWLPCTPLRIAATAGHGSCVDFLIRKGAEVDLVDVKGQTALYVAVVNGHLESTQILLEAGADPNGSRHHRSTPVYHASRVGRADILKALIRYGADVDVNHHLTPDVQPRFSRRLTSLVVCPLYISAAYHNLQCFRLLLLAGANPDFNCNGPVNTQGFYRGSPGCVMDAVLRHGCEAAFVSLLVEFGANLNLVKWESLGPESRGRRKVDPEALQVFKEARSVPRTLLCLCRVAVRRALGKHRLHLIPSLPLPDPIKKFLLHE

[2] = compound: CC1=C(SC2=C1C(=N[C@H](C3=NN=C(N32)C)CC(=O)N)C4=CC=C(C=C4)Cl)C
How it was run: as §1

[3] = compound: CC1=C2C(=CC=C1)N=C(N(C2=O)C3=CC=CC=C3C)CN4C=NC5=C(N=CN=C54)N
How it was run: as §1

[4] = compound: Cc1sc2c(c1C)C(c1ccc(Cl)cc1)=N[C@@H](CC(=O)OC(C)(C)C)c1nnc(C)n1-2
How it was run: as §1

[5] = compound: c1ccc([C@@H]2C[C@H]2NC2CCNCC2)cc1
How it was run: as §1

Measured: log2 fold change

AUP1 (UniProt Q9Y679)
inactive: [1] -0.007 | [2] -0.005 | [3] -0.022 | [4] -0.016 | [5] 0.032

ATP1A3 isoform 3 (UniProt P13637)
inactive: [1] 0.015 | [2] 0.015 | [3] 0.032 | [4] -0.034 | [5] -0.086

ATP5MF-PTCD1 (UniProt G3V325)
inactive: [1] 0.002 | [2] -0.023 | [3] 0 | [4] 0.078 | [5] -0.062

ATG7 (UniProt O95352)
inactive: [1] 0.014 | [2] 0.003 | [3] 0.028 | [4] -0.014 | [5] 0.044

ATP2A3 isoform 2 (UniProt Q93084)
inactive: [1] -0.111 | [2] 0.049 | [3] 0.01 | [4] -0.066 | [5] 0.087

ATP2B4 (UniProt P23634)
inactive: [1] -0.021 | [2] 0.036 | [3] 0.059 | [4] 0.029 | [5] -0.081

ATG3 (UniProt Q9NT62)
inactive: [1] 0.075 | [2] -0.025 | [3] 0.023 | [4] 0.008 | [5] -0.005

ATP13A2 (UniProt Q9NQ11)
inactive: [1] 0.035 | [2] 0.017 | [3] 0.005 | [4] -0.078 | [5] -0.02

ATP11A (UniProt P98196)
inactive: [1] 0.04 | [2] -0.014 | [3] -0.004 | [4] 0.005 | [5] -0.026

ATG2B (UniProt Q96BY7)
inactive: [1] -0.064 | [2] -0.009 | [3] 0.053 | [4] -0.009 | [5] 0.019

ASPH (UniProt Q12797)
inactive: [1] 0.006 | [2] 0.028 | [3] 0 | [4] -0.045 | [5] 0.026

ATP6V1C1 (UniProt P21283)
inactive: [1] -0.015 | [2] -0.035 | [3] -0.01 | [4] 0.032 | [5] 0.012

ATN1 (UniProt P54259)
inactive: [1] -0.007 | [2] 0.006 | [3] -0.028 | [4] 0.015 | [5] -0.077

ATP5F1C (UniProt P36542)
inactive: [1] 0.041 | [2] -0.018 | [3] 0.018 | [4] -0.007 | [5] 0.03

ATG101 (UniProt Q9BSB4)
inactive: [1] 0.1 | [2] -0.045 | [3] 0 | [4] -0.048 | [5] -0.008

ATG5 (UniProt Q9H1Y0)
inactive: [1] 0.051 | [2] -0.024 | [3] -0.002 | [4] -0.028 | [5] -0.007

ATM (UniProt Q13315)
inactive: [1] -0.015 | [2] 0.013 | [3] -0.037 | [4] 0.038 | [5] -0.036

AURKB isoform 5 (UniProt Q96GD4)
inactive: [1] 0.084 | [2] 0 | [3] -0.068 | [4] -0.008 | [5] -0.283

ATP5IF1 (UniProt Q9UII2)
inactive: [1] 0.021 | [2] 0.027 | [3] -0.019 | [4] -0.02 | [5] -0.072

ATF7 isoform 6 (UniProt P17544)
inactive: [1] -0.084 | [2] 0.055 | [3] -0.148 | [4] 0.037 | [5] 0.086

ASS1 (UniProt P00966)
inactive: [1] -0.009 | [2] 0.026 | [4] 0.022 | [5] 0.037

ATF7IP2 (UniProt Q5U623)
inactive: [1] 0.162 | [2] 0.01 | [3] 0.101 | [5] 0.017

ASB16 (UniProt Q96NS5)
inactive: [4] -0.05

ATP5F1A (UniProt K7ENJ4)
inactive: [5] -0.043

B4GALNT1 (UniProt Q00973)
inactive: [3] 0.039 | [4] -0.02 | [5] 0.127

ATF1 (UniProt P18846)
inactive: [1] 0.091 | [2] -0.03 | [4] -0.083 | [5] -0.086

ATP11C, A0A067XG54
inactive: [1] 0.246 | [2] -0.206 | [4] -0.044 | [5] -0.007

Two records drawn at random from the list so far, as already listed:
ATP5MF-PTCD1 (UniProt G3V325)
inactive: [1] 0.002 | [2] -0.023 | [3] 0 | [4] 0.078 | [5] -0.062

ATN1 (UniProt P54259)
inactive: [1] -0.007 | [2] 0.006 | [3] -0.028 | [4] 0.015 | [5] -0.077

More entries follow.

ATPSCKMT (UniProt Q6P4H8)
inactive: [1] 0.111 | [2] -0.006 | [4] 0.023

ASPM (UniProt Q8IZT6)
inactive: [3] 0.021 | [4] 0.026 | [5] 0.026

ATXN7L2 (UniProt Q5T6C5)
inactive: [3] 0.138

ATG13 isoform 2 (UniProt O75143)
inactive: [1] 0.001 | [2] 0.026 | [3] 0.055 | [4] 0.045 | [5] -0.166

ATP2C1 isoform 3 (UniProt P98194)
inactive: [5] 0.011

ATXN2L (UniProt H3BUF6)
inactive: [3] 0.026 | [4] 0.042 | [5] 0.033

ATXN1L (UniProt P0C7T5)
inactive: [1] -0.06 | [2] -0.206 | [3] 0.089 | [5] 0.012

ATP1B4 (UniProt Q9UN42)
inactive: [4] 0.058

ATP6V0A1 (UniProt Q93050)
inactive: [1] 0.068 | [2] -0.019 | [4] -0.167 | [5] -0.032

ATF3 (UniProt P18847)
inactive: [3] 0.071 | [4] -0.276 | [5] -0.25

ASB1 (UniProt Q9Y576)
inactive: [1] -0.03 | [2] 0.035 | [3] 0.045 | [5] 0.07

ATRAID isoform 3 (UniProt Q6UW56)
inactive: [3] -0.018 | [4] -0.003

2 neighbouring records from above:
ATP6V0A1 (UniProt Q93050)
inactive: [1] 0.068 | [2] -0.019 | [4] -0.167 | [5] -0.032

ATF3 (UniProt P18847)
inactive: [3] 0.071 | [4] -0.276 | [5] -0.25

Additional results:

B3GALT6 (UniProt Q96L58)
inactive: [1] 0.055 | [2] 0.041 | [4] 0.269

ATP5F1B (UniProt H0YI37)
inactive: [1] 0.348 | [2] -0.272 | [4] -0.333

ASXL1 (UniProt Q8IXJ9)
inactive: [1] 0.05 | [2] -0.074 | [4] 0.079 | [5] 0.022

ATXN7L3 isoform 2 (UniProt Q14CW9)
inactive: [1] 0.147 | [2] 0.017 | [4] -0.186 | [5] 0.15

B3GNTL1 (UniProt Q67FW5)
inactive: [1] -0.13 | [2] 0 | [5] 0.092

— the supplement of paper PMC10849652
